In article PMC4471349:
Results are given in words; binding and its absence hold for the method and conditions named.

Target: T1, Agα1p (C-terminal half of S. cerevisiae α-agglutinin) displayed on P. pastoris control cells (S. cerevisiae) (UniProt P20840)
T1 sequence: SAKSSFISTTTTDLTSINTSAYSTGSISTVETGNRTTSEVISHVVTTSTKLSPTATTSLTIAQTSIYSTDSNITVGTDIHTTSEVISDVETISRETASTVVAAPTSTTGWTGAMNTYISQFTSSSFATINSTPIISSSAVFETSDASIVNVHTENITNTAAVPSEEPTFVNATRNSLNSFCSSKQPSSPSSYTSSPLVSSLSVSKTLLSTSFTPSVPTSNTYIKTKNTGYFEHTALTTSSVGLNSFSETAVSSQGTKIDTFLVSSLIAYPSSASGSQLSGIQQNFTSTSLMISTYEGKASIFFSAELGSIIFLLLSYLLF
Assay: ELISA; whole-cell sandwich ELISA: yeast cells (OD600 = 10, 10^8 cells/ml) displaying the target incubated with purified protein (10 to 2×10^4 ng/ml) in PBS with 1% BSA, room temperature, 1 h; bound protein detected with polyclonal rabbit antibody and HRP anti-rabbit IgG; only the binder purified

| Substance | binding |
| --- | --- |
| purified PmRab7 (free, unmodified) (Penaeus monodon) | no binding (tested: 2×10^4 ng/ml) |
| purified VP28 (free, unmodified) (white spot syndrome virus (WSSV)) | no binding (tested: 2×10^4 ng/ml) |
